Test results taken from patent US20070281865A1, “MULTI-FUNCTIONAL SPACER FOR GLYCANS” (priority 2006, published 2007).

Experiment: Printing (immobilization) efficiency on NHS-activated slides, detected with RCA-I
Settings: printed 200 μM to 0.4 μM on NHS-activated slides, RCA-I detection

Question: With `CC(=O)NC1C(O)C(OC2OC(CO)C(O)C(O)C2O)C(CO)OC1N(C)OCCN` (stereo not drawn) [Compound 1006] as the compound, how does the “immobilization / printing efficiency (in words)” value read?
Answer: Its value is “printed with equal efficiency; also recorded: readily immobilized”.

Question: For `CC(=O)NC1C(Oc2ccc(N)cc2)OC(CO)C(OC2OC(CO)C(O)C(O)C2O)C1O` (stereo not drawn) [Compound 1008, reference compound], which “immobilization / printing efficiency (in words)” value is on record?
Answer: Its value is “bound less well; also recorded: not readily immobilized”.

Question: For `CC(=O)NC1C(N)OC(CO)C(OC2OC(CO)C(O)C(O)C2O)C1O` (stereo not drawn) [Compound 1009, reference compound], which “immobilization / printing efficiency (in words)” value is on record?
Answer: Its value is “No detectable amounts”.

Entries after “also recorded” stand apart in the source; their conditions may differ.
